From patent US20160046678A1 (ZYNGENIA, published 2016)
No constants are given. Whether binding was seen depends on the method and setting. Some binding calls cover weakened binding; strength is not graded here.

What follows are binders tested against ErbB2 (UniProt P04626) (assay: MRD identification, Example 48).

Binder | binding
WSGWCLTNGVWHGCRGII [EGB644] | binds
WSGWCLFDSKWDYCQGNI [EGB627] | binds
WSGFCLTEESWHHCTGPI [EGB645] | binds
WSGWCETGTGWYHCGGTI [EGB639] | binds
WSGWCFTGDLWHACTGII [EGB647] | binds
WSGWCETVNGWHQCTGTI [EGB642] | binds
WSGWCESNGTWHGCKGTI [EGB630] | binds
WSGWCQTGMRWHQCYGTI [EGB629] | binds
ANSWCHTLYWDLMYCVWQE [EGB628] | binds
WSGWCEGKHQWYFCSGNL [EGB624] | binds
WSGWCEGELQWYYCSGKI [EGB648] | binds
WSGWCEGKEKWHHCNGSI [EGB633] | binds
WSGWCYAPTGWHHCVGTI [EGB638] | binds
WSGWCETSEGWHSCYGSI [EGB634] | binds
WSGWCLNELGWQQCFGTI [EGB635] | binds
WSGWCETLSGWHQCHGVI [EGB632] | binds
WSGWCESSHGWHGCKGII [EGB621] | binds
PDSWCHTLYWHLQHCLSQE [EGB640] | binds
WSGWCERVSGWNYCHGTI [EGB636] | binds
WSGWCEAIDMWYQCHGPI [EGB646] | binds
WSGWCEYELRWDFCSGHI [EGB641] | binds
WSGWCEGEFQWYFCSGQF [EGB649] | binds
WSGWCEYNGYWDYCTGTI [EGB622] | binds
WSGWCETGKYWHYCSGTI [EGB623] | binds
WSGWCEGKHGWYSCRGTI [EGB631] | binds
WSGWCETELGWHQCRGTI [EGB625] | binds
WSGWCETNGKWDFCQGTI [EGB650] | binds
WSGWCLTKNSWDFCSGTI [EGB643] | binds
WSGWCEGQTKWYFCSGQI [EGB626] | binds
WSGWCETPVGWEQCTGTI [EGB651] | binds

Other lines, results leading:

binding | Binder
binds | LGGRCMLFALKQCSMGH [EGB693]
binds | WSGWCENNDGWHHCHGSI [EGB658]
binds | GPELCHHMAGHEWCLRYY [EGB686]
binds | WSGWCETSKGWHFCSGII [EGB669]
binds | WSGWCETVTGWDYCNGKI [EGB660]
binds | KWRCCYGQFQPACNAVS [EGB714]
binds | PKYSCVYSIMKEKWHCRAQT [EGB670]
binds | WSGWCEGEDGWHSCRGTI [EGB668]
binds | WSGWCEGKLHWYFCSGHM [EGB652]
binds | WSGWCETLNGWYGCHGTM [EGB657]
binds | WSGWCEGALGWSSCSGHG [EGB653]
binds | GIWICRHDSPYMKPHCIFTS [EGB705]
binds | STDLCWPHKKHWHCPPAN [EGB729]
binds | PRYKCVFNWEVQKWQCSVWS [EGB716]
binds | ADSWCHTLFWQLQHCVWQE [EGB712]
binds | WSGWCETDEGWRQCSGTI [EGB661]
binds | WSGWCEGIGAWHFCKGII [EGB655]
binds | WSGYCETGRGWHMCQGTI [EGB659]
binds | WSGWCFNEAGWGHCYGLP [EGB664]
binds | YEEHCALFPTDWICTLH [EGB654]

binding | Binder
binds | TWSKCFMVPLGDYCTRAL [EGB707]
binds | DPSRCSKAYQMLYQCRTLI [EGB723]
binds | WSGWCMTLDKWHQCYGTI [EGB662]
binds | THMHCYQHKHHYHCRTSL [EGB675]
binds | FKPHCVYKHQTWVCGPPA [EGB673]
binds | WSGWCETNNGWYACWGMI [EGB663]
binds | TWFRCTPHKHHYHCKHNV [EGB698]
binds | WSGWCESNDGWYQCKGDI [EGB656]
binds | WSGWCETDRGWHECHGTI [EGB665]
binds | AQLKCFEKLYMCRHHL [EGB738]
binds | RTWFCEKMHGQKFHCVSWF [EGB710]
binds | VDRVCQFFMQKCWSSP [EGB739]
binds | WSGWCETKFGWSYCKGTI [EGB666]
binds | SAWYCTKHMPQSKYHCISMR [EGB730]
binds | RSWHCSHQMGSKPHCVLSP [EGB697]
binds | HRSKCFMMYWDENCLQPW [EGB692]
binds | PNRYCYTYPHSVKCAWMY [EGB722]
binds | KWWKCGVIFEICQIVP [EGB732]
binds | WSRLCTMRLPSTCGVWE [EGB696]
binds | SVWKCVKHPFKIKPLCKLES [EGB708]
